The source of these data is article doi:10.1101/068262 (bioRxiv, 2016).

Changes are numbered by the printed parent chain. Results are given in words; binding and its absence hold for the method and conditions named. In cells and extracts the contact can be indirect. Some entries that bind do so weakly or less than the wild type. Sequences can lack the tags named with a protein.

Common to all, as to experiment: co-IP
In assay [1] the target is T1, FLAG-AFF4 Δ970-1163 E322H (UniProt Q9UHB7).
T1 sequence: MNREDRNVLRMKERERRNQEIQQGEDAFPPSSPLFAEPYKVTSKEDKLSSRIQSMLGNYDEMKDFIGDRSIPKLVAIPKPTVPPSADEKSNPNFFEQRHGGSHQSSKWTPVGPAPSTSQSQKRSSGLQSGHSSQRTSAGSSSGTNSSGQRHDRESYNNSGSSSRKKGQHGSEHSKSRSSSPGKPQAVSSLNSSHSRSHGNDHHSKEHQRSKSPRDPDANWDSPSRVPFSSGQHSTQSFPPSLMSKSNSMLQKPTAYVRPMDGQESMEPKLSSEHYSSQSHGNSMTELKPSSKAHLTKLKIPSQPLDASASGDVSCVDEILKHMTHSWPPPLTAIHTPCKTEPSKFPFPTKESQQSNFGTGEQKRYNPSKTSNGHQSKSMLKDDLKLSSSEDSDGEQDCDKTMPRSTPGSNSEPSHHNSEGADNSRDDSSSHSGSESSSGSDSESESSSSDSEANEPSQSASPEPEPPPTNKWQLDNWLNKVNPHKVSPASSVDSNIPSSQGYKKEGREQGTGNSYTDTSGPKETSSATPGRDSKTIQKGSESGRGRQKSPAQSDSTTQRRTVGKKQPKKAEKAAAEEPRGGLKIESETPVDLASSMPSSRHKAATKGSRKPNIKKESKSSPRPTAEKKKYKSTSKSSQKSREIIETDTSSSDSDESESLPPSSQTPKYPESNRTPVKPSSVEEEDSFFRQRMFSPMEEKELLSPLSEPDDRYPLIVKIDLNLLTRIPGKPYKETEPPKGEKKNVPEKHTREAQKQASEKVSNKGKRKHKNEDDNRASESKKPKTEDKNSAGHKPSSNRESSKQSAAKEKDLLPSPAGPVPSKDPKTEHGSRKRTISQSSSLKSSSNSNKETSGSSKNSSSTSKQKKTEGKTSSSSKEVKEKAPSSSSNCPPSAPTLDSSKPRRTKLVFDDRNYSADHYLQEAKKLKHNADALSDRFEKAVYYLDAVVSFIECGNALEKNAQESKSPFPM

The target of assay [2] is T2, FLAG-AFF4 Δ970-1163 F345D (UniProt Q9UHB7).
T2 sequence: T1 sequence with H322E, F345D

The target of assay [3] is T3, FLAG-AFF4 Δ970-1163 F347D (UniProt Q9UHB7).
T3 sequence: T1 sequence with H322E, F347D

B1: ELL1 in nuclear extracts (protein, UniProt P55199 1-621)
chain: MAALKEDRSYGLSCGRVSDGSKVSVFHVKLTDSALRAFESYRARQDSVSLRPSIRFQGSQGHISIPQPDCPAEARTFSFYLSNIGRDNPQGSFDCIQQYVSSHGEVHLDCLGSIQDKITVCATDDSYQKARQSMAQAEEETRSRSAIVIKAGGRYLGKKVQFRKPAPGATDAVPSRKRATPINLASAIRKSGASAVSGGSGVSQRPFRDRVLHLLALRPYRKAELLLRLQKDGLTQADKDALDGLLQQVANMSAKDGTCTLQDCMYKDVQKDWPGYSEGDQQLLKRVLVRKLCQPQSTGSLLGDPAASSPPGERGRSASPPQKRLQPPDFIDPLANKKPRISHFTQRAQPAVNGKLGVPNGREALLPTPGPPASTDTLSSSTHLPPRLEPPRAHDPLADVSNDLGHSGRDCEHGEAAAPAPTVRLGLPLLTDCAQPSRPHGSPSRSKPKKKSKKHKDKERAAEDKPRAQLPDCAPATHATPGAPADTPGLNGTCSVSSVPTSTSETPDYLLKYAAISSSEQRQSYKNDFNAEYSEYRDLHARIERITRRFTQLDAQLRQLSQGSEEYETTRGQILQEYRKIKKTNTNYSQEKHRCEYLHSKLAHIKRLIAEYDQRQLQAWP
Consider B1, for which the values for the binding result in assay [1], in assay [2] and in assay [3] were “no binding”, “binds” and “binds”, respectively.
